PubChem BioAssay AID1259293, Sanger Institute, 2017

- Aim: 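Which silenced kinases act in synergy with BYL719, cetuximab or trametinib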 (follow-up of hits)
- System: human NCI-H716 colorectal cancer cells
- Reagents: single siRNA against human genes
- Conditions: anchor drugs BYL719 at 1 µM, cetuximab at 5 µg/ml or trametinib at 10 nM, or DMSO vehicle alone
- Detection: 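For every anchor drug, viability versus control pool 2 (non-targeting) and a synergy score of drug with siRNA, each a replicate average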
- Reading the numbers: synergy score with BYL719 and synergy score with cetuximab and synergy score with trametinib: higher = stronger synthetic lethal effect with drug
- Call rule: 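An siRNA is active if its synergy score is above 0.10 for one or more of the three anchor drugs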
- Meaning of the calls: active = synergy with at least one drug; inactive = no synergy with any drug
The whole screen tested 160 reagents; this is an unselected part. 46 of them (29%) were called active. 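The method behind the synergy score is not described; each call refers to one siRNA in a single cell line.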 Reagents against one gene are numbered here. Not all columns of the deposit are shown. No sequences are given here. The record does not give: the amount of reagent, the time to read-out.

{"Target gene":"ACVR1 (activin A receptor type 1)","reagent":1,"synergy score with BYL719":-0.294,"synergy score with cetuximab":-0.0529,"synergy score with trametinib":-0.0866,"activity call":"inactive"}
{"Target gene":"ACVR1 (activin A receptor type 1)","reagent":2,"synergy score with BYL719":-0.371,"synergy score with cetuximab":-0.33,"synergy score with trametinib":-0.137,"activity call":"inactive"}
{"Target gene":"ACVR1 (activin A receptor type 1)","reagent":3,"synergy score with BYL719":-0.36,"synergy score with cetuximab":-0.305,"synergy score with trametinib":-0.235,"activity call":"inactive"}
{"Target gene":"ACVR1 (activin A receptor type 1)","reagent":4,"synergy score with BYL719":-0.127,"synergy score with cetuximab":-0.0418,"synergy score with trametinib":-0.122,"activity call":"inactive"}
{"Target gene":"HUNK (hormonally up-regulated Neu-associated kinase)","reagent":1,"synergy score with BYL719":-0.197,"synergy score with cetuximab":0.0287,"synergy score with trametinib":-0.0733,"activity call":"inactive"}
{"Target gene":"HUNK (hormonally up-regulated Neu-associated kinase)","reagent":2,"synergy score with BYL719":-0.14,"synergy score with cetuximab":-0.0936,"synergy score with trametinib":0.147,"activity call":"active"}
{"Target gene":"HUNK (hormonally up-regulated Neu-associated kinase)","reagent":3,"synergy score with BYL719":-0.063,"synergy score with cetuximab":-0.263,"synergy score with trametinib":-0.0414,"activity call":"inactive"}
{"Target gene":"HUNK (hormonally up-regulated Neu-associated kinase)","reagent":4,"synergy score with BYL719":0.125,"synergy score with cetuximab":0.031,"synergy score with trametinib":0.111,"activity call":"active"}
{"Target gene":"NR2F2 (nuclear receptor subfamily 2 group F member 2)","reagent":1,"synergy score with BYL719":-0.155,"synergy score with cetuximab":-0.109,"synergy score with trametinib":-0.0962,"activity call":"inactive"}
{"Target gene":"NR2F2 (nuclear receptor subfamily 2 group F member 2)","reagent":2,"synergy score with BYL719":-0.155,"synergy score with cetuximab":-0.109,"synergy score with trametinib":-0.325,"activity call":"inactive"}
{"Target gene":"NR2F2 (nuclear receptor subfamily 2 group F member 2)","reagent":3,"synergy score with BYL719":-0.381,"synergy score with cetuximab":-0.225,"synergy score with trametinib":-0.347,"activity call":"inactive"}
{"Target gene":"NR2F2 (nuclear receptor subfamily 2 group F member 2)","reagent":4,"synergy score with BYL719":-0.427,"synergy score with cetuximab":-0.4,"synergy score with trametinib":-0.101,"activity call":"inactive"}
{"Target gene":"GRK5 (G protein-coupled receptor kinase 5)","reagent":1,"synergy score with BYL719":-0.325,"synergy score with cetuximab":-0.266,"synergy score with trametinib":-0.266,"activity call":"inactive"}
{"Target gene":"GRK5 (G protein-coupled receptor kinase 5)","reagent":2,"synergy score with BYL719":-0.179,"synergy score with cetuximab":-0.109,"synergy score with trametinib":0.0342,"activity call":"inactive"}
{"Target gene":"GRK5 (G protein-coupled receptor kinase 5)","reagent":3,"synergy score with BYL719":-0.188,"synergy score with cetuximab":0.0127,"synergy score with trametinib":0.0718,"activity call":"inactive"}
{"Target gene":"GRK5 (G protein-coupled receptor kinase 5)","reagent":4,"synergy score with BYL719":0.167,"synergy score with cetuximab":-0.0362,"synergy score with trametinib":0.194,"activity call":"active"}

Looked up above:
HUNK (hormonally up-regulated Neu-associated kinase) #4, synergy score with cetuximab = 0.031
Under “synergy score with cetuximab”, HUNK (hormonally up-regulated Neu-associated kinase) #2 has -0.0936

The list goes on:
{"Target gene":"BRAF (B-Raf proto-oncogene, serine/threonine kinase)","reagent":1,"synergy score with BYL719":-0.25,"synergy score with cetuximab":-0.152,"synergy score with trametinib":-0.0761,"activity call":"inactive"}
{"Target gene":"BRAF (B-Raf proto-oncogene, serine/threonine kinase)","reagent":2,"synergy score with BYL719":0.0856,"synergy score with cetuximab":-0.243,"synergy score with trametinib":-0.148,"activity call":"inactive"}
{"Target gene":"BRAF (B-Raf proto-oncogene, serine/threonine kinase)","reagent":3,"synergy score with BYL719":0.0983,"synergy score with cetuximab":-0.0268,"synergy score with trametinib":0.0931,"activity call":"inactive"}
{"Target gene":"BRAF (B-Raf proto-oncogene, serine/threonine kinase)","reagent":4,"synergy score with BYL719":-0.131,"synergy score with cetuximab":-0.143,"synergy score with trametinib":-0.0461,"activity call":"inactive"}
{"Target gene":"SYK (spleen associated tyrosine kinase)","reagent":1,"synergy score with BYL719":0.00768,"synergy score with cetuximab":0.0897,"synergy score with trametinib":0.0776,"activity call":"inactive"}
{"Target gene":"SYK (spleen associated tyrosine kinase)","reagent":2,"synergy score with BYL719":-0.179,"synergy score with cetuximab":0.0136,"synergy score with trametinib":0.0124,"activity call":"inactive"}
{"Target gene":"SYK (spleen associated tyrosine kinase)","reagent":3,"synergy score with BYL719":0.0275,"synergy score with cetuximab":-0.111,"synergy score with trametinib":0.0219,"activity call":"inactive"}
{"Target gene":"SYK (spleen associated tyrosine kinase)","reagent":4,"synergy score with BYL719":-0.516,"synergy score with cetuximab":-0.182,"synergy score with trametinib":-0.149,"activity call":"inactive"}
